From paper PMC6768103
No constants are given. Whether binding was seen depends on the method and setting.

Chains of the proteins cited; added tags and fusions are not shown.
UniProt Q5SIY4: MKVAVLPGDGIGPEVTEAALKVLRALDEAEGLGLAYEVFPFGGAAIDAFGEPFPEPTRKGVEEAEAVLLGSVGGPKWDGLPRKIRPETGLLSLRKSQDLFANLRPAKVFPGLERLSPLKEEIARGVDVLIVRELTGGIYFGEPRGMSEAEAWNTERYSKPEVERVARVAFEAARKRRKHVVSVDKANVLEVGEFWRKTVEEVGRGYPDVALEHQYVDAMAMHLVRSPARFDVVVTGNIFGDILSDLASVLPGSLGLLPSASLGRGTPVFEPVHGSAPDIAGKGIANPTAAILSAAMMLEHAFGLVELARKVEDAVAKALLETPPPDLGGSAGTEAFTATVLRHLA
UniProt A0A8C2QII0: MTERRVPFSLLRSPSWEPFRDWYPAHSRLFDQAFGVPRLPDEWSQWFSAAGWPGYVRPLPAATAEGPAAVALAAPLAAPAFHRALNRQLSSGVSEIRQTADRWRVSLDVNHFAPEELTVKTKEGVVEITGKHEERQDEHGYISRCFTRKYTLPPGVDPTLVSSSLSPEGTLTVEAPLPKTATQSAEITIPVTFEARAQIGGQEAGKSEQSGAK

Assays:
[1] = biological target: T1, porcine heart citrate synthase (pig) (UniProt P00889); assay: condition: only at room temperature without heating (native CS); CgHspB1WT 30 µM; SEC; mixture of CgHspB1WT (30 µM) and CS incubated at 25 °C for 30 min and analysed at 25 °C; both purified
T1 sequence: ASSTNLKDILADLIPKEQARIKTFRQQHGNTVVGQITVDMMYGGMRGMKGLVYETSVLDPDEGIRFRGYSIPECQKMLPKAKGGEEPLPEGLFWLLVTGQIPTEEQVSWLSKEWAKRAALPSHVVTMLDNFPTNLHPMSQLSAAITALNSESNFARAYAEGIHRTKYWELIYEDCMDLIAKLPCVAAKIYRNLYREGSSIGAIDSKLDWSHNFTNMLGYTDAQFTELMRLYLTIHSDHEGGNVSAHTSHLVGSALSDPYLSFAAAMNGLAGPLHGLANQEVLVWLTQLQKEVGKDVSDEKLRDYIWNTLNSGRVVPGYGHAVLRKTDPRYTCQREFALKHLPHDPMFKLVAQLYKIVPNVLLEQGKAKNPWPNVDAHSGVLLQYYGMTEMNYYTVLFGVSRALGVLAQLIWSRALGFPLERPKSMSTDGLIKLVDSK

[2] = biological target: isopropyl malate dehydrogenase from Thermus thermophilus HB8 (Thermus thermophilus HB8) (UniProt Q5SIY4); assay: SEC; mixture of CgHspB1WT (30 µM) and IPMDH incubated at 25 and 55 °C for 30 min and analysed at the same temperature; the 55 °C mixture also cooled and analysed at 25 °C; both purified

binding [1]: no binding | binding [2]: no binding (tested: CgHspB1WT 30 µM)
Substance: wild‐type CgHspB1 (HspB1/Hsp27 from Chinese hamster ovary cells) (from UniProt A0A8C2QII0 1-213)
